Patent EP0427427A2, “Use of arylalkylamides in the treatment of neurodegenerative diseases” (FISONS CORPORATION, priority 1989, dated 1991)

Test system: Dogs
Assay: Global ischemia (clamping the ascending aorta), protection of CA1 neurons
Details: iv

NCC(=O)NC(Cc1ccccc1)c1ccccc1 (centres unmarked) [Compound B, 2-amino-N-(1,2-diphenylethyl)acetamide]
therapeutic range (convulsive index) (toxic dose for convulsions / active dose): about 8.8
therapeutic range (preictal behavioural index) (toxic dose for preictal behaviour / active dose): about 8.8
